Assay results taken from PMC8544320.
These are yes or no findings as the source states them, for the method shown. Binding seen in cells or lysates may run through a third protein. Some entries that bind do so weakly or less than the wild type.

Amino acid sequences for entries named in this document (tags omitted).
UniProt Q86U44: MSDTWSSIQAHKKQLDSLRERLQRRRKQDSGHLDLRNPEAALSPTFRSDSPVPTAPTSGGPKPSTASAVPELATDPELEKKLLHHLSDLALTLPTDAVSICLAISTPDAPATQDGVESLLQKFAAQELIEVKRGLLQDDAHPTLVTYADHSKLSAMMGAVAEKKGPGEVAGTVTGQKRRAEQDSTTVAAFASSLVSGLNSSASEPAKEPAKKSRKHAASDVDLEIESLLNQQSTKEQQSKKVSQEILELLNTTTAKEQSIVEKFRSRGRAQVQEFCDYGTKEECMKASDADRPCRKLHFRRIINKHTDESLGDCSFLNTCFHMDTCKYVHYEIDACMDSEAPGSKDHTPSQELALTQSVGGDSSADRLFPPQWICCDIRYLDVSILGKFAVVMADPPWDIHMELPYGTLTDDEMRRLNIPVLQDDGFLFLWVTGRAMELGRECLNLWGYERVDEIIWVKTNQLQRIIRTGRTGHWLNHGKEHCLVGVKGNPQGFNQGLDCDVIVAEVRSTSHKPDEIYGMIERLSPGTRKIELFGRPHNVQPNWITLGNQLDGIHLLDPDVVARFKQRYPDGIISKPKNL

Target: T1, PIWIL4 (human) (UniProt Q7Z3Z4)
T1 sequence: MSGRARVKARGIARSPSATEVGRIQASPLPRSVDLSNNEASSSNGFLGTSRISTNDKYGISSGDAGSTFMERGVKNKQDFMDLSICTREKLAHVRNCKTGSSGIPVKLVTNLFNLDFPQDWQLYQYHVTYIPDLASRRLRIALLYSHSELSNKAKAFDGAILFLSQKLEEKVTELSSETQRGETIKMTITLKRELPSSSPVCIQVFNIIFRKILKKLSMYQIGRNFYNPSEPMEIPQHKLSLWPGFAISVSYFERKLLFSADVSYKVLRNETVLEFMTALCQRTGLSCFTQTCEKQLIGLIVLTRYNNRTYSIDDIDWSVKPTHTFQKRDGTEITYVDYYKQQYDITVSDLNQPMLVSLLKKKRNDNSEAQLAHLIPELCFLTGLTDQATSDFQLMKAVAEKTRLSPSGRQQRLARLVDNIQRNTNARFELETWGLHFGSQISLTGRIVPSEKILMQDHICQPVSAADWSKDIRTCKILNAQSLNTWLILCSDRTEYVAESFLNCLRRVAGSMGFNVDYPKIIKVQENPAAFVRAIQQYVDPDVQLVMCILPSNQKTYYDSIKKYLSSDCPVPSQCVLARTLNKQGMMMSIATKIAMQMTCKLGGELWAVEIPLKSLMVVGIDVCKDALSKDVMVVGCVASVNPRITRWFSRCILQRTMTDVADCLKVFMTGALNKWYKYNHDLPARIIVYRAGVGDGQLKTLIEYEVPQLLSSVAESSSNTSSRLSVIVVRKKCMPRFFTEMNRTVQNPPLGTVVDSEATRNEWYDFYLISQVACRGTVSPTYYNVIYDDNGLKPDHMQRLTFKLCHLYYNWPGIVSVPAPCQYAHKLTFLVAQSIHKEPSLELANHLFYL
Assay: co-IP; BMSCs transfected with METTL3 and PIWIL4 overexpression vectors; lysate incubated overnight at 4°C with anti-METTL3 or anti-PIWIL4 antibody, Protein A/G Plus-Agarose beads; Western blot with METTL3 or PIWIL4 antibodies; homotypic IgG as negative control

- binding: binds
Substance: METTL3 (methyltransferase like 3) (from UniProt Q86U44 1-580) (enzyme)
